Measurements reported in PubChem BioAssay AID493014 (National Center for Advancing Translational Sciences (NCATS), 2011).
Several values for one entry are separate records, joined by “and”; a condition that tells them apart may be missing. Identical values can stand only once. Screen size: about 340,000 compounds; about 170 (0.05%) were called active. Inconclusive results, whose numbers are uncertain, are shown with a selection of clear calls. Calls come from the whole dose curve; as a rule, active = well fitted inhibition curve with a large enough effect in the signal ratio, with a control signal flat (not every such curve was filed as active); inconclusive = small, poorly fitted or top-dose-only effect, or effect the other way, or a change in a side signal; inactive = flat fitted curve, though single readings scatter; the % refers to the signal ratio. A potency beside an inconclusive call is a rough fit, not a confirmed value.

assay: qHTS Assay to Find Inhibitors of Chronic Active B-Cell Receptor Signaling; settings: ABC-DLBCL IkBa-CBG/CBR reporter, luminescence ratio (green luciferase fused to IkBa over red control in TMD8 lymphoma cells), 4 h; activity change, negative = inhibition: at 46.1 µM (top of the series);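 for activity change, negative = inhibition: plate controls were basal doxycycline-induced cells for no effect and cells given 10 µM MG132 for full effect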
Outline: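 Cell line TMD8 (human ABC DLBCL), stably expressing tet-inducible CBG68-IkBa fusion and CBR; IMDM/0.5% FBS; cpd up to 46 uM; dox induction, 4 h, 37C/5% CO2; dual luminescence; green/red ratio; MG132 control.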
Potency is the fitted concentration of half-maximal effect.

| SMILES | Potency | activity change, negative = inhibition |
| --- | --- | --- |
| COc1cccc(NC(=O)NC2CCCCC2C)c1 (configuration not stated) | inconclusive: 35.5 µM [falling, single point] | – |
| CN(c1ccccc1)P(=O)(N(C)c1ccccc1)N(C)c1ccccc1 | – | inconclusive: 5.91% |
| Cc1ccc(NC(=O)Cn2c(=O)c(C)nc3ccccc32)cc1 | – | inconclusive: -11.3% |
| O=C(O)c1ccc(C2CCCCC2)cn1 | – | inactive |
| CC(C)Cn1c(SCC(=O)NCc2ccc(Cl)cc2)nnc1-c1cccc(S(=O)(=O)N2CCOCC2)c1 | – | inconclusive: 0.402% |
| O=C(COC(=O)c1ccc2c(c1)C(=O)N(c1cccc3ncccc13)C2=O)c1ccc(Cl)cc1 | – | inactive |
| COc1nc(Nc2ccccc2F)nc(OC)n1 | – | inactive |
| CCOc1ccccc1N1CC(C(=O)NCCc2ccc(S(N)(=O)=O)cc2)CC1=O (configuration not stated) | – | inconclusive: 1.24% |
| CCC(C)Sc1nc2c(cnn2-c2ccccc2)c(=O)[nH]1 (configuration not stated) | – | inconclusive: 2.72% |
| N#Cc1nc(Cc2cccc3ccccc23)oc1NCCN1CCOCC1 | inconclusive: 29.1 µM [falling, single point] | – |
| Cc1ccsc1C(=O)OCC(=O)NCc1ccc(Cl)cc1 | – | inconclusive: 6.07% |
| O=C(N/N=C/c1cn(Cc2ccccc2)c2ccccc12)c1cccnc1 | inconclusive: 13 µM [falling, partial curve, poor fit] | – |
| CCC(=O)N1CCN(c2ccc(NC(=O)c3ccc([N+](=O)[O-])o3)cc2Cl)CC1 | inconclusive: 20 µM [falling, partial curve, poor fit] | – |
| CC(=O)N1N=C(c2ccc(C)cc2)CC1c1ccco1 (configuration not stated) | – | inconclusive: 11.4% |
| NC(=O)Nn1c(CCC(=O)O)ccc1-c1ccc(Cl)cc1 | – | inconclusive: -14.3% |
| COC(=O)C1=C(O)/C(=C\c2cc(C)n(-c3ccc(F)cc3)c2C)N=C1C | inconclusive: 22.4 µM [falling, single point] | – |
| COc1cc2oc(=O)cc(-c3ccc(-c4ccc(O)cc4)cc3)c2c(OC)c1OC | – | inconclusive: 10.8% |
| CC(=O)Nc1ccc(S(=O)(=O)N2CCC3(CC2)CC(=O)c2ccccc2O3)cc1 | – | inactive |
| O=C(c1ccc(C(F)(F)F)cc1)N1CCC(=O)N(C(COCc2ccccc2)Cc2ccccc2)CC1 (configuration not stated) | – | inactive |
| Cc1ccc(/C=C/S(=O)(=O)NCCC(=O)NCc2ccccc2F)cc1 | – | inactive |
| c1ccc2c(NC3CCCC3)nnc(NC3CCCC3)c2c1 | – | inactive |
| COc1ccccc1NC(=O)c1c(Nc2ccccc2F)sc(C(=O)Nc2cccc(Cl)c2)c1N | – | inconclusive: 16.4% |
| COc1ccccc1-c1ccc(SCC(=O)Nc2cc(C)on2)nn1 | – | inconclusive: -0.551% |
| Cc1ccc(/C=C(\C#N)C(=O)Nc2cccc(C)n2)cc1 | – | inconclusive: 7.88% |
| CC1(C)Cc2ccccc2-c2nnc(SCc3ccccc3)n21 | – | inconclusive: 9.52% |
| CCOC(=O)c1[nH]c2ccc(F)cc2c1NC(=O)CN1CCN(C/C=C/c2ccccc2)CC1 | inconclusive: 0.447 µM [falling, full curve, poor fit] | – |

| SMILES | Potency | activity change, negative = inhibition |
| --- | --- | --- |
| COc1ccc(OCC(O)CN2CCN(Cc3ccc4c(c3)OCO4)CC2)cc1 (configuration not stated) | – | inactive |
| O=C(Nc1ncnc2c1ncn2C1OC(COC(=O)c2ccccc2)C(F)C1O)c1ccccc1 (configuration not stated) | – | inconclusive: 6.1% |
| CCn1cc(C(=O)OCC(=O)c2ccc(Cl)cc2)c(=O)c2ccc(C)nc21 | – | inconclusive: 27.7% |
| CC(C)Nc1nc(NC2CCCC2)nc(N2CCOCC2)n1 | – | inactive |
| Cc1ccc(C)c(N2CCN(c3cnn(-c4nc5ccccc5s4)c(=O)c3Cl)CC2)c1 | – | inactive |
| COc1ccc(C(=O)C2CCCN(C(=O)c3ccc(C(C)=O)s3)C2)c(C)c1 (configuration not stated) | – | inconclusive: -0.377% |
| Cc1cc(C)nc(NC(=O)c2ccc(COc3ccccc3Cl)cc2)c1 | – | inconclusive: -7.81% |
| Cc1ccn2c(CNCCn3cccn3)c(C(=O)N3CCCCCC3)nc2c1 | – | inconclusive: 12.1% |
| O=C(/C=C/c1ccccc1Cl)c1ccc(O)cc1 | inconclusive: 35.5 µM [falling, single point] | – |
| Cc1ccc(/C=C2\SC(=S)N(CCC(=O)NCCCN3CCOCC3)C2=O)cc1 | – | inconclusive: -15% |
| COc1ccc(-n2c(CNC(=O)COc3ccc(Cl)cc3)n[nH]c2=S)cc1 | – | inactive |
| COc1cccc(N=Nc2ccc3ccccc3c2O)c1 | – | inconclusive: -2.2% |
| Cc1cc(=O)[nH]c(SCC(=O)N2CCC(C(N)=O)CC2)n1 | – | inactive |
| CCn1cnc2sc(C)c(C)c2c1=O | inconclusive: 0.92 µM [falling, partial curve, poor fit] | – |
| Cc1ccc2oc(/N=C(\N)NC(=O)C3CC3)nc2c1 | inconclusive: 35.5 µM [rising, single point] | – |
| COc1ccccc1/C=C1\SC(=S)N(CCC(=O)N2CCCCC2CCO)C1=O (configuration not stated) | inconclusive: 6.31 µM [falling, single point] | – |
| Cn1c(=O)c2c(nc(CN3CCN(CCO)CC3)n2Cc2cccc3ccccc23)n(C)c1=O | – | inconclusive: -4.33% |
| CCc1ccc(CCC(=O)Nc2sc3c(c2C#N)CCCC3)o1 | inconclusive: 20.6 µM [falling, single point] | – |
| O=C(O)CC(NNC(=O)c1ccccc1)C(=O)Nc1cccc([N+](=O)[O-])c1 (configuration not stated) | inconclusive: 15.8 µM [falling, partial curve] | – |
| OCCCc1nc2ccccc2n1CCCCOc1ccccc1 | – | inconclusive: 6.98% and inconclusive: 0.0826% |
| CC(C)NCCCCOc1cccc(Br)c1 | – | inactive |
| Cc1cc(C(C)(C)C)c(OC(=O)[C@@H]2OC(c3ccccc3)=C[C@H]2c2ccccc2)c(C(C)(C)C)c1 | – | inactive |
| COc1ccc(NC(=S)NN(C)C(=S)Nc2ccc(OC)cc2)cc1 | inconclusive: 29.1 µM [falling, partial curve, poor fit] | – |
| COc1ccc(-n2c(C)cc(C(=O)CCl)c2C)cc1 | inconclusive: 35.5 µM [cytotoxic, single point] | – |
| CCCn1c2ccc(C)cc2c2n[nH]c(=S)nc21 | – | inactive |
| CCCCOC(=O)Nc1ccc(N(C)C)cc1 | inconclusive: 29.1 µM [falling, single point] | – |
